Results as given in the supplement of paper PMC10849652.
This is one part of the list.

Chains of the proteins cited; added tags and fusions are not shown. Lines headed by an entry give the natural chain unless they say otherwise; changes in a name come on top.
UniProt P84095: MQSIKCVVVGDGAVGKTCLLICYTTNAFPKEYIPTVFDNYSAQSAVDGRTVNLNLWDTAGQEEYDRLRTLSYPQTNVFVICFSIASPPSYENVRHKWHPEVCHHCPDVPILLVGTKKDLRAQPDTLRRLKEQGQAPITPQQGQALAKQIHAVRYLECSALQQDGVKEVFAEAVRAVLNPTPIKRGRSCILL
UniProt Q96AA3: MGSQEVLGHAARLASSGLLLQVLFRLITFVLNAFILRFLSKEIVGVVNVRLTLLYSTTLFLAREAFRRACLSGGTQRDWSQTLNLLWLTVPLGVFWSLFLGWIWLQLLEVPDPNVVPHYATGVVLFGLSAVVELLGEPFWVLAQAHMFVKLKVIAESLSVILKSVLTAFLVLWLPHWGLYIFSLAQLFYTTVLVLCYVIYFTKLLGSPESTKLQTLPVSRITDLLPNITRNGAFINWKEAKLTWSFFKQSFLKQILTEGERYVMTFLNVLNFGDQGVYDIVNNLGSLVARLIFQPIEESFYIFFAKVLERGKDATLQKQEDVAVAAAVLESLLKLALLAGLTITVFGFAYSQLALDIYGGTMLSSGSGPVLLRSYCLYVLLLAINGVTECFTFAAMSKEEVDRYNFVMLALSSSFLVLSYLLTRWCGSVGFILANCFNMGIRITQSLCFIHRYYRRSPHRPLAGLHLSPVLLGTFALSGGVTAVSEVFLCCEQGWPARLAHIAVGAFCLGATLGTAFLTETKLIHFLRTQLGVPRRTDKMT
UniProt Q06330: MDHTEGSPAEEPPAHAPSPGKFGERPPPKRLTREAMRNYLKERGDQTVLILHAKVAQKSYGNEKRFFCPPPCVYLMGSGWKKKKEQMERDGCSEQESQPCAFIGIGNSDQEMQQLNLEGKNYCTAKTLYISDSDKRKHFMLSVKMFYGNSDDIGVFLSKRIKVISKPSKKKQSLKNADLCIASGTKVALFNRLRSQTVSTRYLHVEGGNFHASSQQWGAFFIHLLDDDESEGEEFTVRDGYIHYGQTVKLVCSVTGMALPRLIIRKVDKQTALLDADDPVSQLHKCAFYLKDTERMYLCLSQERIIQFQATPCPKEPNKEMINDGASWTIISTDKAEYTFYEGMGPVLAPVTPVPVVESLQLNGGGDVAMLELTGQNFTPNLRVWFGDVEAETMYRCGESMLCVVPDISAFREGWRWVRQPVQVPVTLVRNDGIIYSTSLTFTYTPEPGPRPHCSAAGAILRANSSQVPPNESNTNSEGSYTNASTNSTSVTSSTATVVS
UniProt Q96TC7: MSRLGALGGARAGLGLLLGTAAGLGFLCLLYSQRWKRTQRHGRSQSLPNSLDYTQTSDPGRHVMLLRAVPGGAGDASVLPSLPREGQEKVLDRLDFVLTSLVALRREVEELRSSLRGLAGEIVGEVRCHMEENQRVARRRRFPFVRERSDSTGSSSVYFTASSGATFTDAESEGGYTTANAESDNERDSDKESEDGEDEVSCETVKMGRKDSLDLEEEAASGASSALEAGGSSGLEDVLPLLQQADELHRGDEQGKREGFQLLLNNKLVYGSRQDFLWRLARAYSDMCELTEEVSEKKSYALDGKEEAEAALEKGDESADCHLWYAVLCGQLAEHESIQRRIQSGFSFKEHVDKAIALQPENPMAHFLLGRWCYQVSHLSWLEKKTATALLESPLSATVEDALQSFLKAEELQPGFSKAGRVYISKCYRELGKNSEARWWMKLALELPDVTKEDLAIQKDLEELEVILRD
UniProt Q8ND24: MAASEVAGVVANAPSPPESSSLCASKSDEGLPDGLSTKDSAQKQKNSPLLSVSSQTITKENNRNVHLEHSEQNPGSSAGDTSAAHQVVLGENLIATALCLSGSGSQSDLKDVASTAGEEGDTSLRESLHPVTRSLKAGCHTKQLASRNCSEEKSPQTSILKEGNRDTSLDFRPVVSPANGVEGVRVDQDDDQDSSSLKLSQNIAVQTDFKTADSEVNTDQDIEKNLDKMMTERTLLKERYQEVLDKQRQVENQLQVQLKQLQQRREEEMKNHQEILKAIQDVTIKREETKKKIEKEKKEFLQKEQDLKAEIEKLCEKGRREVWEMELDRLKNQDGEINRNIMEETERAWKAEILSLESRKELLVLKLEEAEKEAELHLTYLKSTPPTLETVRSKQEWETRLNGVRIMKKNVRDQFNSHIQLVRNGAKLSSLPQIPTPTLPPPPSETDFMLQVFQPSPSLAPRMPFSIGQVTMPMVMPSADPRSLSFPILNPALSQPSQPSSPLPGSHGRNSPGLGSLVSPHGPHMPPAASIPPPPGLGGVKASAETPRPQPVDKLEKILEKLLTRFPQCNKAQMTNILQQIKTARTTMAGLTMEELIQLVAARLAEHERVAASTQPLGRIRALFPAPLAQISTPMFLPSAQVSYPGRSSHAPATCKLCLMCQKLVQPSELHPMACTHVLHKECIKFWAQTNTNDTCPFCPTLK
UniProt Q96DB5: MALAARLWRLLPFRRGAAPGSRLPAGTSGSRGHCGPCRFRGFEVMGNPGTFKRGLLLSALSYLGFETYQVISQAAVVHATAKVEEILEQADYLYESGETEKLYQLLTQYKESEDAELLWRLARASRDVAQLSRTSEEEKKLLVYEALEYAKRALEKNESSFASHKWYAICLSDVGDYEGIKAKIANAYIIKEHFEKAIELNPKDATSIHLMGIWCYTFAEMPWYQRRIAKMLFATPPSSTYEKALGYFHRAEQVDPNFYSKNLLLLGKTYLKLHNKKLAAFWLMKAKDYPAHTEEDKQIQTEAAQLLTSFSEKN
UniProt Q8TAC1: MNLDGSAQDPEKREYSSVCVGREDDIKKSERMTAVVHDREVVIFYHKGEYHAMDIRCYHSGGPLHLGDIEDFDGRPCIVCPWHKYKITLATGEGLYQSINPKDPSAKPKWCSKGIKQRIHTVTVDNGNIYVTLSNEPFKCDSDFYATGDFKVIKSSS
UniProt Q9BWE0: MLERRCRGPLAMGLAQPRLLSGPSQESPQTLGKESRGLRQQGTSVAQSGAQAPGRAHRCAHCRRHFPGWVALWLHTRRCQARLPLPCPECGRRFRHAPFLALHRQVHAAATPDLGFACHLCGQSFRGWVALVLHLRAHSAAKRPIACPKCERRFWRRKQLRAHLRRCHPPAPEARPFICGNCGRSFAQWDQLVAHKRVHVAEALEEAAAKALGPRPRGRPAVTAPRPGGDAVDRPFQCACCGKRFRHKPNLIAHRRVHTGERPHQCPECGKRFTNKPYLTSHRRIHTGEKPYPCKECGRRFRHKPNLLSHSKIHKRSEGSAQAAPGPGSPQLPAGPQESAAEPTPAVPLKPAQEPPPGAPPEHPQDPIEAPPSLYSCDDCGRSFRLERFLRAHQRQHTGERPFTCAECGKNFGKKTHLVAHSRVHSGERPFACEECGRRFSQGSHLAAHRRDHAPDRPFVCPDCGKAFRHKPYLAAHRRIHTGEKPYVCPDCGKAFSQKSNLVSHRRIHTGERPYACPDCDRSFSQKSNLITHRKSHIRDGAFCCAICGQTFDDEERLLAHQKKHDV
UniProt Q9Y2P8: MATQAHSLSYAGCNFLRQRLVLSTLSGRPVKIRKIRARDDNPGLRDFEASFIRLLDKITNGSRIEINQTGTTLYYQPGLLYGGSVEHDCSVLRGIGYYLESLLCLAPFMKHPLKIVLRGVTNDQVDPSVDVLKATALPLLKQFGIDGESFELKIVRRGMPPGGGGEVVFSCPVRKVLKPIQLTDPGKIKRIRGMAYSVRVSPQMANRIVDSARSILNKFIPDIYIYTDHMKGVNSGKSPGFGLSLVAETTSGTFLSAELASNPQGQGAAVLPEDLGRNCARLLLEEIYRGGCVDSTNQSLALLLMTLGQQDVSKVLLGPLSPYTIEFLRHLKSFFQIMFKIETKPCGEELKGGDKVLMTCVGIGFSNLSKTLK
UniProt P38159: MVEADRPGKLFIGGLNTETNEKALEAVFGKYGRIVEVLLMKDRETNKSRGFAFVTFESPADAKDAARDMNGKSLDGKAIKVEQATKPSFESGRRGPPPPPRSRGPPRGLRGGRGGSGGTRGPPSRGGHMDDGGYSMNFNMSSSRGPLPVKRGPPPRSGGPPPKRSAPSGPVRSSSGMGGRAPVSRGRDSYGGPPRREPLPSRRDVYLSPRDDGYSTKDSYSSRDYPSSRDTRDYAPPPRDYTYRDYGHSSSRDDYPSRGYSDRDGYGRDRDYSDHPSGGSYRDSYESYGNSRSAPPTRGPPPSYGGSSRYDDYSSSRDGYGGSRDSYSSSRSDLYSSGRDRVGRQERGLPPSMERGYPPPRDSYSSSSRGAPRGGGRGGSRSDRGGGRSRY
UniProt Q8IXI2: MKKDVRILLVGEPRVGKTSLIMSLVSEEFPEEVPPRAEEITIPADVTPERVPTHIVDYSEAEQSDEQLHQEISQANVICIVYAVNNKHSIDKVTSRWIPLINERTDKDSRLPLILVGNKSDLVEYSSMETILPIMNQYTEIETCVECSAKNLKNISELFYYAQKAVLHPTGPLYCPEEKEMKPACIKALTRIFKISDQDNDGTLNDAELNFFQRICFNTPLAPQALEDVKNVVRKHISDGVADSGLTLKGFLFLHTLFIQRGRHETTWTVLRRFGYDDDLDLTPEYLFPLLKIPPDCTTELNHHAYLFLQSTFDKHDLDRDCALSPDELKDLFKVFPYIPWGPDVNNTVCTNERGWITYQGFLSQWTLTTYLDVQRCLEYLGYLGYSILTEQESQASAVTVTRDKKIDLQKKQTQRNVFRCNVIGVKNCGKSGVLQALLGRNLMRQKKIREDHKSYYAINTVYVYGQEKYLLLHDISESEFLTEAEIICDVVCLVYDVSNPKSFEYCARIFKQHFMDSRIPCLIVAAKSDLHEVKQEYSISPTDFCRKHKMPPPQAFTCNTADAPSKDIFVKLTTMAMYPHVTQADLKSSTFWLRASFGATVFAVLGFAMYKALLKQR
UniProt O15541: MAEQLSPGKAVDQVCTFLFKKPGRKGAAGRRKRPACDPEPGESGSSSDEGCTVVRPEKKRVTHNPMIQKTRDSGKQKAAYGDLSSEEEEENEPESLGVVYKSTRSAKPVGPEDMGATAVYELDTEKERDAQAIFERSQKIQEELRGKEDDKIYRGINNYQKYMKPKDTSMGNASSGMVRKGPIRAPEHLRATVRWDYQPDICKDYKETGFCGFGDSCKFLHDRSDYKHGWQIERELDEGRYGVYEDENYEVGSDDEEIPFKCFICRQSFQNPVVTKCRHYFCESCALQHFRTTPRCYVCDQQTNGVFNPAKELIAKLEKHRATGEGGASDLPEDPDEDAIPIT
UniProt Q00765: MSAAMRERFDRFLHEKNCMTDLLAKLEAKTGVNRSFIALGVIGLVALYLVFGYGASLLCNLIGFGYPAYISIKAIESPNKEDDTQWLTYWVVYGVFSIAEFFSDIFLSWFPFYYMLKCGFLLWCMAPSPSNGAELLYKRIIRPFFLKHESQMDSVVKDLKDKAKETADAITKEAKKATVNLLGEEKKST
UniProt P52758: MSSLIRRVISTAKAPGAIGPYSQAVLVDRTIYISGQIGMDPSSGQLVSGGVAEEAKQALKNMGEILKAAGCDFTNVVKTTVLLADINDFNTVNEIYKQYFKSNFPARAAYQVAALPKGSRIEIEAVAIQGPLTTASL
UniProt Q96I51, whole entry, looked up: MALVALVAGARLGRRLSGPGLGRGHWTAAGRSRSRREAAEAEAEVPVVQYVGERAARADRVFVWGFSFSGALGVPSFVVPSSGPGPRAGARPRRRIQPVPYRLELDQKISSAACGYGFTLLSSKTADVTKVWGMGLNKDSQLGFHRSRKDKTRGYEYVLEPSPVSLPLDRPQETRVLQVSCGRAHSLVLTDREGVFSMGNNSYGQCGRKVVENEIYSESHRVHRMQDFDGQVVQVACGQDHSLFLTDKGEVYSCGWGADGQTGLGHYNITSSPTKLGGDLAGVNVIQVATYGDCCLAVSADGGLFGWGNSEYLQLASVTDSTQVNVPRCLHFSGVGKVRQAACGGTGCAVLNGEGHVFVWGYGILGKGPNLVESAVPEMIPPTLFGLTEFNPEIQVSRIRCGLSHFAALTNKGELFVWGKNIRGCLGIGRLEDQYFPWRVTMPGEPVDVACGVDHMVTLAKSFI
UniProt Q5TBB1: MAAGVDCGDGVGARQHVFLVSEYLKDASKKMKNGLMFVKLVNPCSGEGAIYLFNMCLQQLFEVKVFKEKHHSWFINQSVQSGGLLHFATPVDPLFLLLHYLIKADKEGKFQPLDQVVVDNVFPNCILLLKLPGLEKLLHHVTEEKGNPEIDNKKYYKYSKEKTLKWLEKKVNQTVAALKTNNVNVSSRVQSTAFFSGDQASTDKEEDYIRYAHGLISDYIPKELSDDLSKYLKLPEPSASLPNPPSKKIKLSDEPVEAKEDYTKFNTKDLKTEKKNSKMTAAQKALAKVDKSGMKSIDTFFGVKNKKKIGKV

Assays:
Assay in all cases: log2 fold change, soluble protein after heating vs DMSO (PISA); higher = thermal stabilisation; K562 cells, 10 uM, 30 min; active = over 0.2 and 3.5 SD of the protein, either way, in both replicates (recomputed)
saracatinib = compound: CN1CCN(CCOc2cc(OC3CCOCC3)c3c(Nc4c(Cl)ccc5c4OCO5)ncnc3c2)CC1 [saracatinib]
Outline: (§1)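 Soluble protein was defined as the supernatant after 21,000xg for 90 min. It came from K562 cells at 2×10^6 cells/mL given 10 μM compound for 30 min, heated in aliquots for 3 min across 48°C-58°C, pooled, and extracted in PBS with 0.5% NP-40 at 4°C, and was quantified by TMTpro 16plex LC-MS/MS with equalised channel sums. Thermal stability against control samples, from duplicates, is reported as log2 fold change.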

sotrastaurin = compound: CN1CCN(c2nc(C3=C(c4c[nH]c5ccccc45)C(=O)NC3=O)c3ccccc3n2)CC1 [sotrastaurin]
Outline: as §1

alvocidib = compound: CN1CC[C@H](c2c(O)cc(O)c3c(=O)cc(-c4ccccc4Cl)oc23)[C@H](O)C1 [alvocidib]
Outline: as §1

Tubastatin A = compound: CN1CCc2c(c3ccccc3n2Cc2ccc(C(=O)NO)cc2)C1 [Tubastatin A]
Outline: as §1

[1] = compound: CNC(=O)C1=CC=CC=C1NC2=NC(=NC=C2Cl)NC3=C(C=C(C=C3)N4CCOCC4)OC
Outline: as §1

defactinib = compound: CNC(=O)c1ccc(Nc2ncc(C(F)(F)F)c(NCc3nccnc3N(C)S(C)(=O)=O)n2)cc1 [defactinib]
Outline: as §1

rucaparib = compound: CNCc1ccc(-c2[nH]c3cc(F)cc4c3c2CCNC4=O)cc1 [rucaparib]
Outline: as §1

[2] = compound: CNc1nc(-c2ccc3c(N)n[nH]c3c2)cc(N2C[C@@H](C(=O)NC3CCCCC3)CC[C@H]2C)n1
Outline: as §1

encorafenib = compound: COC(=O)N[C@@H](C)CNc1nccc(-c2cn(C(C)C)nc2-c2cc(Cl)cc(NS(C)(=O)=O)c2F)n1 [encorafenib]
Outline: as §1

[3] = compound: COC(=O)[C@H](CCSC)NC(=O)C1=C(C=C(C=C1)NC[C@H](CS)N)C2=CC=CC=C2
Outline: as §1

[4] = compound: COC1=CC=C(C=C1)CN2C=CC3=C2C=C(C=C3)C(=O)NO
Outline: as §1

filanesib = compound: CON(C)C(=O)N1N=C(c2cc(F)ccc2F)S[C@@]1(CCCN)c1ccccc1 [filanesib]
Outline: as §1

zotarolimus = compound: CO[C@H]1C[C@@H]2CC[C@@H](C)[C@@](O)(O2)C(=O)C(=O)N2CCCC[C@H]2C(=O)O[C@H]([C@H](C)C[C@@H]2CC[C@H](n3cnnn3)[C@H](OC)C2)CC(=O)[C@H](C)/C=C(\C)[C@@H](O)[C@@H](OC)C(=O)[C@H](C)C[C@H](C)/C=C/C=C/C=C/1C [zotarolimus]
Outline: as §1

idasanutlin = compound: COc1cc(C(=O)O)ccc1NC(=O)[C@@H]1N[C@@H](CC(C)(C)C)[C@](C#N)(c2ccc(Cl)cc2F)[C@H]1c1cccc(Cl)c1F [idasanutlin]
Outline: as §1

alisertib = compound: COc1cc(Nc2ncc3c(n2)-c2ccc(Cl)cc2C(c2c(F)cccc2OC)=NC3)ccc1C(=O)O [alisertib]
Outline: as §1

[5] = compound: COc1cc2nc(-c3cc(F)ccc3O)nc(N[C@@H]3CNC[C@H]3C(C)(C)O)c2cc1OC
Outline: as §1

gefitinib = compound: COc1cc2ncnc(Nc3ccc(F)c(Cl)c3)c2cc1OCCCN1CCOCC1 [gefitinib]
Outline: as §1

[6] = compound: COc1cccc2cc(-c3nc([C@H]4CC[C@H](C(=O)O)CC4)n4ncnc(N)c34)[nH]c12
Outline: as §1

lapatinib = compound: CS(=O)(=O)CCNCc1ccc(-c2ccc3ncnc(Nc4ccc(OCc5cccc(F)c5)c(Cl)c4)c3c2)o1 [lapatinib]
Outline: as §1

pictilisib = compound: CS(=O)(=O)N1CCN(Cc2cc3nc(-c4cccc5[nH]ncc45)nc(N4CCOCC4)c3s2)CC1 [pictilisib]
Outline: as §1

Measured: log2 fold change

RHOG (UniProt P84095)
inactive: saracatinib 0.034 | sotrastaurin 0.038 | alvocidib -0.026 | Tubastatin A -0.002 | [1] -0.02 | defactinib 0.01 | rucaparib -0.043 | [2] 0.002 | encorafenib -0.038 | [3] 0.009 | [4] 0.189 | filanesib -0.034 | zotarolimus 0.029 | idasanutlin 0.033 | alisertib -0.021 | [5] 0.044 | gefitinib 0.001 | [6] 0.046 | lapatinib -0.007 | pictilisib 0

RFT1 (UniProt Q96AA3)
inactive: saracatinib 0.067 | sotrastaurin 0.052 | alvocidib 0.01 | Tubastatin A -0.003 | [1] 0.001 | defactinib -0.01 | rucaparib -0.044 | [2] -0.036 | encorafenib 0.015 | [3] 0.059 | [4] -0.096 | filanesib -0.023 | zotarolimus -0.054 | idasanutlin -0.001 | alisertib -0.04 | [5] 0.106 | gefitinib 0.033 | [6] 0.117 | lapatinib -0.099 | pictilisib 0.016

RBPJ (UniProt Q06330)
inactive: saracatinib 0.02 | sotrastaurin -0.008 | alvocidib 0.028 | Tubastatin A -0.006 | [1] -0.022 | defactinib 0.046 | rucaparib 0 | [2] -0.053 | encorafenib -0.032 | [3] 0.025 | [4] 0.026 | filanesib -0.014 | zotarolimus -0.03 | idasanutlin -0.006 | alisertib -0.115 | [5] 0.001 | gefitinib 0.003 | [6] 0.046 | lapatinib -0.009 | pictilisib 0.03

RMDN3 (UniProt Q96TC7)
inactive: saracatinib -0.046 | sotrastaurin 0.015 | alvocidib -0.039 | Tubastatin A 0.009 | [1] -0.043 | defactinib -0.027 | rucaparib 0.021 | [2] 0.066 | encorafenib 0.049 | [3] -0.018 | [4] 0.037 | filanesib -0.048 | zotarolimus 0.022 | idasanutlin -0.026 | alisertib -0.057 | [5] 0.013 | gefitinib 0.076 | [6] 0.019 | lapatinib 0.036 | pictilisib 0.022

RNF214 (UniProt Q8ND24)
inactive: saracatinib -0.019 | sotrastaurin -0.036 | alvocidib -0.004 | Tubastatin A 0.033 | [1] -0.021 | defactinib -0.037 | rucaparib 0.087 | [2] 0.066 | encorafenib 0.085 | [3] -0.021 | [4] -0.036 | filanesib 0.072 | zotarolimus 0.018 | idasanutlin -0.047 | alisertib -0.076 | [5] 0.089 | gefitinib 0.022 | [6] -0.078 | lapatinib 0.025 | pictilisib 0

RMDN1 (UniProt Q96DB5)
inactive: saracatinib 0.026 | sotrastaurin 0.016 | alvocidib -0.088 | Tubastatin A -0.01 | [1] 0 | defactinib -0.034 | rucaparib -0.01 | [2] -0.023 | encorafenib -0.008 | [3] -0.016 | [4] -0.009 | filanesib -0.114 | zotarolimus 0.004 | idasanutlin -0.084 | alisertib -0.018 | [5] -0.034 | gefitinib -0.001 | [6] 0.038 | lapatinib 0.064 | pictilisib 0.019

RFESD isoform 2 (UniProt Q8TAC1)
inactive: saracatinib -0.022 | sotrastaurin -0.001 | alvocidib -0.022 | Tubastatin A 0.005 | [1] -0.095 | defactinib -0.025 | rucaparib -0.036 | [2] -0.026 | encorafenib -0.011 | [3] 0.025 | [4] 0 | filanesib 0.027 | zotarolimus -0.009 | idasanutlin -0.023 | alisertib -0.037 | [5] -0.076 | gefitinib 0.037 | [6] 0.073 | lapatinib 0.013 | pictilisib -0.007

REPIN1 isoform 4 (UniProt Q9BWE0)
inactive: saracatinib -0.022 | sotrastaurin -0.006 | alvocidib 0.041 | Tubastatin A -0.02 | [1] 0.002 | defactinib -0.003 | rucaparib 0.088 | [2] -0.052 | encorafenib -0.009 | [3] 0.027 | [4] 0.212 | filanesib 0.014 | zotarolimus -0.004 | idasanutlin 0.015 | alisertib 0.002 | [5] -0.019 | gefitinib -0.012 | [6] 0.031 | lapatinib 0.046 | pictilisib -0.009

RCL1 (UniProt Q9Y2P8)
inactive: saracatinib -0.113 | sotrastaurin -0.024 | alvocidib 0.248 | Tubastatin A 0.159 | [1] 0.1 | defactinib 0.319 | rucaparib 0.289 | [2] 0.196 | encorafenib 0.226 | [3] 0.022 | [4] -0.013 | filanesib 0.286 | zotarolimus 0.101 | idasanutlin 0.169 | alisertib -0.025 | [5] 0.045 | gefitinib -0.018 | [6] -0.135 | lapatinib 0.019 | pictilisib -0.024

RBMX (UniProt P38159)
inactive: saracatinib -0.008 | sotrastaurin -0.021 | alvocidib 0.206 | Tubastatin A 0.073 | [1] 0.011 | defactinib 0.288 | rucaparib 0.265 | [2] 0.065 | encorafenib 0.147 | [3] 0.003 | [4] -0.153 | filanesib 0.462 | zotarolimus 0.019 | idasanutlin 0.33 | alisertib -0.133 | [5] -0.062 | gefitinib -0.058 | [6] -0.12 | lapatinib 0.096 | pictilisib -0.089

RHOT1 isoform 3 (UniProt Q8IXI2)
inactive: saracatinib 0.04 | sotrastaurin -0.007 | alvocidib -0.024 | Tubastatin A -0.018 | [1] 0.032 | defactinib -0.041 | rucaparib -0.011 | [2] -0.019 | encorafenib 0.044 | [3] -0.015 | [4] 0.057 | filanesib -0.117 | zotarolimus -0.061 | idasanutlin -0.027 | alisertib -0.019 | [5] -0.031 | gefitinib 0.006 | [6] -0.003 | lapatinib -0.006 | pictilisib -0.033

RNF113A (UniProt O15541)
inactive: saracatinib 0.014 | sotrastaurin 0.053 | alvocidib 0.001 | Tubastatin A -0.04 | [1] -0.033 | defactinib 0.01 | rucaparib -0.016 | [2] -0.014 | encorafenib 0 | [3] 0.047 | [4] -0.011 | filanesib -0.012 | zotarolimus -0.013 | idasanutlin -0.021 | alisertib -0.047 | [5] -0.002 | gefitinib 0.015 | [6] 0.042 | lapatinib -0.012 | pictilisib 0.06

REEP5 (UniProt Q00765)
inactive: saracatinib 0.073 | sotrastaurin 0.07 | alvocidib -0.008 | Tubastatin A -0.007 | [1] -0.006 | defactinib 0.074 | rucaparib -0.068 | [2] -0.021 | encorafenib -0.036 | [3] -0.031 | [4] 0.105 | filanesib -0.051 | zotarolimus -0.016 | idasanutlin 0.102 | alisertib -0.001 | [5] -0.054 | gefitinib 0.03 | [6] 0.06 | lapatinib -0.041 | pictilisib -0.023

RIDA (UniProt P52758)
inactive: saracatinib 0.093 | sotrastaurin 0.036 | alvocidib 0.051 | Tubastatin A -0.022 | [1] 0.247 | defactinib 0 | rucaparib -0.012 | [2] -0.005 | encorafenib -0.067 | [3] 0.006 | [4] 0.001 | filanesib -0.007 | zotarolimus 0.005 | idasanutlin 0.01 | alisertib -0.026 | [5] -0.033 | gefitinib 0.03 | [6] -0.015 | lapatinib -0.021 | pictilisib -0.001

RCC1L (UniProt Q96I51)
inactive: saracatinib 0.017 | sotrastaurin -0.001 | alvocidib -0.036 | Tubastatin A -0.028 | [1] -0.022 | defactinib -0.017 | rucaparib -0.014 | [2] -0.058 | encorafenib -0.039 | [3] 0.021 | [4] 0.019 | filanesib -0.082 | zotarolimus 0.013 | idasanutlin -0.034 | alisertib -0.073 | [5] -0.039 | gefitinib 0.031 | [6] 0.034 | lapatinib 0.013 | pictilisib -0.021

RNASEH2B (UniProt Q5TBB1)
inactive: saracatinib -0.06 | sotrastaurin -0.238 | alvocidib -0.222 | Tubastatin A 0.189 | [1] 0.073 | defactinib -0.14 | rucaparib -0.041 | [2] 0.138 | encorafenib 0.079 | [3] -0.006 | [4] 0.17 | filanesib -0.328 | zotarolimus 0.07 | idasanutlin -0.088 | alisertib 0.065 | [5] 0.112 | gefitinib 0.05 | [6] 0.069 | lapatinib -0.095 | pictilisib 0.13

3 successive records already listed, for reference:
REEP5 (UniProt Q00765)
inactive: saracatinib 0.073 | sotrastaurin 0.07 | alvocidib -0.008 | Tubastatin A -0.007 | [1] -0.006 | defactinib 0.074 | rucaparib -0.068 | [2] -0.021 | encorafenib -0.036 | [3] -0.031 | [4] 0.105 | filanesib -0.051 | zotarolimus -0.016 | idasanutlin 0.102 | alisertib -0.001 | [5] -0.054 | gefitinib 0.03 | [6] 0.06 | lapatinib -0.041 | pictilisib -0.023

RIDA (UniProt P52758)
inactive: saracatinib 0.093 | sotrastaurin 0.036 | alvocidib 0.051 | Tubastatin A -0.022 | [1] 0.247 | defactinib 0 | rucaparib -0.012 | [2] -0.005 | encorafenib -0.067 | [3] 0.006 | [4] 0.001 | filanesib -0.007 | zotarolimus 0.005 | idasanutlin 0.01 | alisertib -0.026 | [5] -0.033 | gefitinib 0.03 | [6] -0.015 | lapatinib -0.021 | pictilisib -0.001

RCC1L (UniProt Q96I51)
inactive: saracatinib 0.017 | sotrastaurin -0.001 | alvocidib -0.036 | Tubastatin A -0.028 | [1] -0.022 | defactinib -0.017 | rucaparib -0.014 | [2] -0.058 | encorafenib -0.039 | [3] 0.021 | [4] 0.019 | filanesib -0.082 | zotarolimus 0.013 | idasanutlin -0.034 | alisertib -0.073 | [5] -0.039 | gefitinib 0.031 | [6] 0.034 | lapatinib 0.013 | pictilisib -0.021
